Source: the supplement of paper PMC8728848
This is one part of the list.

What was measured:
Experiment in all cases: glycan array binding signal (z-score within array); higher = stronger binding
Conditions in all cases: glycan notation: IUPAC condensed, linker removed; mutation: Y54A
Neu5Ac(a2-3)GalNAc = target: Neu5Ac(a2-3)GalNAc
Summary of the method: (§1)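 Negative Z-scores can be read as non-binding. The Z-score is calculated within each array and then averaged across arrays of one protein sequence at different concentrations or buffers and across linkers. Arrays, 3228 in all, were curated from the Consortium for Functional Glycomics database and kept only where the protein sequence was available.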

[1] = target: Neu5Ac(a2-3)GalNAc(b1-4)GlcNAc
Summary of the method: as §1

[2] = target: Neu5Ac(a2-3)[GalNAc(b1-4)]Gal(b1-4)Glc
Summary of the method: as §1

[3] = target: Neu5Ac(a2-3)[GalNAc(b1-4)]Gal(b1-4)GlcNAc
Summary of the method: as §1

[4] = target: Neu5Ac(a2-3)[GalNAc(b1-4)]Gal(b1-4)GlcNAc(b1-3)GalNAc
Summary of the method: as §1

[5] = target: Neu5Ac(a2-3)[Neu5Ac(a2-6)]GalNAc
Summary of the method: as §1

Neu5Ac(a2-6)Gal = target: Neu5Ac(a2-6)Gal
Summary of the method: as §1

[6] = target: Neu5Ac(a2-6)Gal(b1-3)GlcNAc(b1-3)[Gal(b1-4)GlcNAc(b1-6)]Gal(b1-4)Glc
Summary of the method: as §1

Neu5Ac(a2-6)Gal(b1-4)Glc = target: Neu5Ac(a2-6)Gal(b1-4)Glc
Summary of the method: as §1

[7] = target: Neu5Ac(a2-6)Gal(b1-4)GlcNAc
Summary of the method: as §1

[8] = target: Neu5Ac(a2-6)Gal(b1-4)GlcNAc(b1-2)Man
Summary of the method: as §1

[9] = target: Neu5Ac(a2-6)Gal(b1-4)GlcNAc(b1-2)Man(a1-3)Man(b1-4)GlcNAc(b1-4)GlcNAc
Summary of the method: as §1

[10] = target: Neu5Ac(a2-6)Gal(b1-4)GlcNAc(b1-2)Man(a1-3)[Gal(b1-4)GlcNAc(b1-2)Man(a1-6)]Man(b1-4)GlcNAc(b1-4)GlcNAc
Summary of the method: as §1

[11] = target: Neu5Ac(a2-6)Gal(b1-4)GlcNAc(b1-2)Man(a1-3)[GlcNAc(b1-2)Man(a1-6)]Man(b1-4)GlcNAc(b1-4)GlcNAc
Summary of the method: as §1

[12] = target: Neu5Ac(a2-6)Gal(b1-4)GlcNAc(b1-2)Man(a1-3)[GlcNAc(b1-4)][Neu5Ac(a2-6)Gal(b1-4)GlcNAc(b1-2)Man(a1-6)]Man(b1-4)GlcNAc(b1-4)GlcNAc
Summary of the method: as §1

[13] = target: Neu5Ac(a2-6)Gal(b1-4)GlcNAc(b1-2)Man(a1-3)[Man(a1-6)]Man(b1-4)GlcNAc(b1-4)GlcNAc
Summary of the method: as §1

[14] = target: Neu5Ac(a2-6)Gal(b1-4)GlcNAc(b1-2)Man(a1-3)[Neu5Ac(a2-3)Gal(b1-4)GlcNAc(b1-2)Man(a1-6)]Man(b1-4)GlcNAc(b1-4)GlcNAc
Summary of the method: as §1

[15] = target: Neu5Ac(a2-6)Gal(b1-4)GlcNAc(b1-2)Man(a1-3)[Neu5Ac(a2-6)Gal(b1-4)GlcNAc(b1-2)Man(a1-6)]Man(b1-4)GlcNAc(b1-4)GlcNAc
Summary of the method: as §1

[16] = target: Neu5Ac(a2-6)Gal(b1-4)GlcNAc(b1-2)Man(a1-3)[Neu5Ac(a2-6)Gal(b1-4)GlcNAc(b1-2)Man(a1-6)]Man(b1-4)GlcNAc(b1-4)[Fuc(a1-6)]GlcNAc
Summary of the method: as §1

[17] = target: Neu5Ac(a2-6)Gal(b1-4)GlcNAc(b1-2)Man(a1-6)Man(b1-4)GlcNAc(b1-4)GlcNAc
Summary of the method: as §1

[18] = target: Neu5Ac(a2-6)Gal(b1-4)GlcNAc(b1-2)Man(a1-6)[Gal(b1-4)GlcNAc(b1-2)Man(a1-3)]Man(b1-4)GlcNAc(b1-4)GlcNAc
Summary of the method: as §1

[19] = target: Neu5Ac(a2-6)Gal(b1-4)GlcNAc(b1-2)Man(a1-6)[GlcNAc(b1-2)Man(a1-3)]Man(b1-4)GlcNAc(b1-4)GlcNAc
Summary of the method: as §1

[20] = target: Neu5Ac(a2-6)Gal(b1-4)GlcNAc(b1-2)Man(a1-6)[Man(a1-3)]Man(b1-4)GlcNAc(b1-4)GlcNAc
Summary of the method: as §1

[21] = target: Neu5Ac(a2-6)Gal(b1-4)GlcNAc(b1-2)[Neu5Ac(a2-6)Gal(b1-4)GlcNAc(b1-4)]Man(a1-3)[GlcNAc(b1-4)][Neu5Ac(a2-6)Gal(b1-4)GlcNAc(b1-2)[Neu5Ac(a2-6)Gal(b1-4)GlcNAc(b1-6)]Man(a1-6)]Man(b1-4)GlcNAc(b1-4)GlcNAc
Summary of the method: as §1

[22] = target: Neu5Ac(a2-6)Gal(b1-4)GlcNAc(b1-2)[Neu5Ac(a2-6)Gal(b1-4)GlcNAc(b1-4)]Man(a1-3)[GlcNAc(b1-4)][Neu5Ac(a2-6)Gal(b1-4)GlcNAc(b1-4)Man(a1-6)]Man(b1-4)GlcNAc(b1-4)GlcNAc
Summary of the method: as §1

[23] = target: Neu5Ac(a2-6)Gal(b1-4)GlcNAc(b1-2)[Neu5Ac(a2-6)Gal(b1-4)GlcNAc(b1-6)]Man(a1-6)[Neu5Ac(a2-6)Gal(b1-4)GlcNAc(b1-2)Man(a1-3)][GlcNAc(b1-4)]Man(b1-4)GlcNAc(b1-4)GlcNAc
Summary of the method: as §1

[24] = target: Neu5Ac(a2-6)Gal(b1-4)GlcNAc(b1-3)Gal(b1-3)GlcNAc
Summary of the method: as §1

[25] = target: Neu5Ac(a2-6)Gal(b1-4)GlcNAc(b1-3)Gal(b1-4)GlcNAc
Summary of the method: as §1

[26] = target: Neu5Ac(a2-6)Gal(b1-4)GlcNAc(b1-3)Gal(b1-4)GlcNAc(b1-2)Man(a1-3)[Neu5Ac(a2-6)Gal(b1-4)GlcNAc(b1-3)Gal(b1-4)GlcNAc(b1-2)Man(a1-6)]GalNAc
Summary of the method: as §1

[27] = target: Neu5Ac(a2-6)Gal(b1-4)GlcNAc(b1-3)Gal(b1-4)GlcNAc(b1-3)Gal(b1-4)GlcNAc
Summary of the method: as §1

[28] = target: Neu5Ac(a2-6)Gal(b1-4)GlcNAc(b1-3)Gal(b1-4)GlcNAc(b1-3)Gal(b1-4)GlcNAc(b1-2)Man(a1-3)[Neu5Ac(a2-6)Gal(b1-4)GlcNAc(b1-3)Gal(b1-4)GlcNAc(b1-3)Gal(b1-4)GlcNAc(b1-2)Man(a1-6)]GalNAc
Summary of the method: as §1

[29] = target: Neu5Ac(a2-6)Gal(b1-4)GlcNAc(b1-3)Gal(b1-4)GlcNAc(b1-3)GalNAc
Summary of the method: as §1

[30] = target: Neu5Ac(a2-6)Gal(b1-4)GlcNAc(b1-3)Gal(b1-4)GlcNAc(b1-3)[Neu5Ac(a2-6)Gal(b1-4)GlcNAc(b1-3)Gal(b1-4)GlcNAc(b1-6)]GalNAc
Summary of the method: as §1

[31] = target: Neu5Ac(a2-6)Gal(b1-4)GlcNAc(b1-3)Gal(b1-4)GlcNAc(b1-6)[Gal(b1-3)]GalNAc
Summary of the method: as §1

[32] = target: Neu5Ac(a2-6)Gal(b1-4)GlcNAc(b1-3)Gal(b1-4)[Fuc(a1-3)]GlcNAc(b1-3)Gal(b1-4)[Fuc(a1-3)]GlcNAc
Summary of the method: as §1

[33] = target: Neu5Ac(a2-6)Gal(b1-4)GlcNAc(b1-3)GalNAc
Summary of the method: as §1

[34] = target: Neu5Ac(a2-6)Gal(b1-4)GlcNAc(b1-3)[Neu5Ac(a2-6)Gal(b1-4)GlcNAc(b1-6)]GalNAc
Summary of the method: as §1

[35] = target: Neu5Ac(a2-6)Gal(b1-4)GlcNAc(b1-6)GalNAc
Summary of the method: as §1

B1: CBP21 (Serratia marcescens), O83009 (protein)
chain: MNKTSRTLLSLGLLSAAMFGVSQQANAHGYVESPASRAYQCKLQLNTQCGSVQAEPQSVEGLKGFPQAGPADGHIASADKSTFFELDQQTPTRWNKLNLKTGPNSFTWKLTARHSTTSWRYFITKPNWDASQPLTRASFDLTPFCQFNDGGAIPAAQVTHQCNIPADRSGSHVILAVWDIADTANAFYQAIDVNLSK
- glycan array binding signal (z-score) (Neu5Ac(a2-3)GalNAc): -0.301
- glycan array binding signal (z-score) [1]: -1.04
- glycan array binding signal (z-score) [2]: -0.588
- glycan array binding signal (z-score) [3]: -0.321
- glycan array binding signal (z-score) [4]: -1.33
- glycan array binding signal (z-score) [5]: -0.082
- glycan array binding signal (z-score) (Neu5Ac(a2-6)Gal): -0.427
- glycan array binding signal (z-score) [6]: -0.973
- glycan array binding signal (z-score) (Neu5Ac(a2-6)Gal(b1-4)Glc): -0.381
- glycan array binding signal (z-score) [7]: -0.417
- glycan array binding signal (z-score) [8]: -0.238
- glycan array binding signal (z-score) [9]: -0.57
- glycan array binding signal (z-score) [10]: -0.353
- glycan array binding signal (z-score) [11]: -0.716
- glycan array binding signal (z-score) [12]: -0.098
- glycan array binding signal (z-score) [13]: -0.577
- glycan array binding signal (z-score) [14]: 1.69
- glycan array binding signal (z-score) [15]: 0.116
- glycan array binding signal (z-score) [16]: -0.376
- glycan array binding signal (z-score) [17]: -0.554
- glycan array binding signal (z-score) [18]: 0.306
- glycan array binding signal (z-score) [19]: -0.508
- glycan array binding signal (z-score) [20]: 0.138
- glycan array binding signal (z-score) [21]: 0.142
- glycan array binding signal (z-score) [22]: -0.859
- glycan array binding signal (z-score) [23]: -0.337
- glycan array binding signal (z-score) [24]: -0.558
- glycan array binding signal (z-score) [25]: -0.539
- glycan array binding signal (z-score) [26]: 0.107
- glycan array binding signal (z-score) [27]: -0.314
- glycan array binding signal (z-score) [28]: -0.018
- glycan array binding signal (z-score) [29]: -0.371
- glycan array binding signal (z-score) [30]: -0.8
- glycan array binding signal (z-score) [31]: -1.14
- glycan array binding signal (z-score) [32]: 4.6
- glycan array binding signal (z-score) [33]: 0.029
- glycan array binding signal (z-score) [34]: -0.488
- glycan array binding signal (z-score) [35]: -0.287
